# Measurements taken from the supplement of paper PMC4635364.
# Where a name gives a salt, the structure may show the parent alone. The list shows a part of the results. Repeats in this data set agree poorly, so a single value says little.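 ReNCell VM, a human fetal ventral-midbrain neural progenitor line, was differentiated without mitogens. Blinded raters scored images stained for doublecortin (early neurons) or tyrosine hydroxylase (dopaminergic neurons) against untreated wells (0 = no change). Scores were averaged across repeats and both raters, and compounds averaging 2 or more were selected as hits for retesting.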
# Assays:
# ReNCell VM [1] = test: neuronal differentiation score (DCX+ cell fraction vs untreated, manual image score) (score (-3 to 3)); higher = more neuronal differentiation; details: 2 uM, 2 weeks
# ReNCell VM [2] = test: dopaminergic neuron differentiation score (TH+ cell fraction vs untreated, manual image score) (score (0 to 3)); higher = more TH+ dopaminergic neuron differentiation; details: 2 uM, 4 weeks, BDNF 10 ng/ml + GDNF 10 ng/ml
structure (smiles),measurement,setting,value
CC(C)(C)NCC(O)COc1cccc2c1CCC(=O)N2 (centres undefined),neuronal differentiation score,ReNCell VM [1]; library: Spectrum,inactive: 0
same,dopaminergic neuron differentiation score,ReNCell VM [2]; library: Spectrum,inactive: 0
O=C1OC(=O)[C@H]2[C@@H]1[C@@H]1CC[C@H]2O1 [Norcantharidin],neuronal differentiation score,ReNCell VM [1]; library: LOPAC,inactive: -2
same,dopaminergic neuron differentiation score,ReNCell VM [2]; library: LOPAC,inactive: 0
O=c1oc2ccccc2c(O)c1Cc1c(O)c2ccccc2oc1=O [Dicumarol],neuronal differentiation score,ReNCell VM [1]; library: Prestwick,inactive: 0
same,dopaminergic neuron differentiation score,ReNCell VM [2]; library: Prestwick,inactive: 1
C[C@](N)(Cc1ccc(O)c(O)c1)C(=O)O,neuronal differentiation score,ReNCell VM [1]; library: Spectrum,inactive: 0
same,dopaminergic neuron differentiation score,ReNCell VM [2]; library: Spectrum,inactive: 0
Cc1cc2nc3c(=O)[nH]c(=O)nc-3n(C[C@H](O)[C@H](O)[C@H](O)CO)c2cc1C [Riboflavine],neuronal differentiation score,ReNCell VM [1]; library: Phytochemical,inactive: 0
same,dopaminergic neuron differentiation score,ReNCell VM [2]; library: Phytochemical,inactive: 0
CN1CCN(C2=Cc3ccccc3Oc3ccc(Cl)cc32)CC1,neuronal differentiation score,ReNCell VM [1]; library: Tocriscreen,inactive: 0
same,dopaminergic neuron differentiation score,ReNCell VM [2]; library: Tocriscreen,inactive: 0
C#CC1(O)CC[C@H]2[C@@H]3CCC4=CC(=O)CC[C@@H]4[C@H]3CC[C@@]21CC (some centres undefined),neuronal differentiation score,ReNCell VM [1]; library: Spectrum,inactive: 0
same,dopaminergic neuron differentiation score,ReNCell VM [2]; library: Spectrum,inactive: 0
CC1CCc2cc(F)cc3c(=O)c(C(=O)O)cn1c23 (centres undefined),neuronal differentiation score,ReNCell VM [1]; library: Spectrum,inactive: 0
same,dopaminergic neuron differentiation score,ReNCell VM [2]; library: Spectrum,inactive: 0
CN(C)CCCN1c2ccccc2Sc2ccccc21,neuronal differentiation score,ReNCell VM [1]; library: Spectrum,inactive: 0
same,dopaminergic neuron differentiation score,ReNCell VM [2]; library: Spectrum,inactive: 0
CCN1CCc2nc(N)oc2CC1 [B-HT 933 dihydrochloride],neuronal differentiation score,ReNCell VM [1]; library: LOPAC,inactive: 0
same,dopaminergic neuron differentiation score,ReNCell VM [2]; library: LOPAC,inactive: 0
O=Nc1c(-c2c(O)[nH]c3ccccc23)[nH]c2ccccc12 [Indirubin-3'-oxime],neuronal differentiation score,ReNCell VM [1]; library: Tocriscreen,active: 3
same,dopaminergic neuron differentiation score,ReNCell VM [2]; library: Tocriscreen,inactive: 0
C[N+]1(C)C[C@H](O)C[C@H]1C(=O)[O-] [Betonicine],neuronal differentiation score,ReNCell VM [1]; library: Phytochemical,inactive: 0
same,dopaminergic neuron differentiation score,ReNCell VM [2]; library: Phytochemical,inactive: 0
Cc1cc2c(cc1S(N)(=O)=O)S(=O)(=O)CCC2,neuronal differentiation score,ReNCell VM [1]; library: Spectrum,inactive: 0
same,dopaminergic neuron differentiation score,ReNCell VM [2]; library: Spectrum,inactive: 0
CC(C(=O)O)c1ccc2c(c1)[nH]c1ccc(Cl)cc12 (centres undefined),neuronal differentiation score,ReNCell VM [1]; library: Spectrum,inactive: 0
same,dopaminergic neuron differentiation score,ReNCell VM [2]; library: Spectrum,inactive: 0
CN(CCCN1c2ccccc2CCc2ccccc21)CC(=O)c1ccc(Cl)cc1 [Lofepramine],neuronal differentiation score,ReNCell VM [1]; library: Tocriscreen,inactive: 0
same,dopaminergic neuron differentiation score,ReNCell VM [2]; library: Tocriscreen,inactive: 0
CN(C)C(=O)C(CCN1CCC(O)(c2ccc(Cl)cc2)CC1)(c1ccccc1)c1ccccc1,neuronal differentiation score,ReNCell VM [1]; library: Spectrum,inactive: 0
same,dopaminergic neuron differentiation score,ReNCell VM [2]; library: Spectrum,inactive: 0
Cc1nn(-c2ccccc2)c(C)c1C=NN1CCN(Cc2ccccc2)CC1,neuronal differentiation score,ReNCell VM [1]; library: Tocriscreen,inactive: 0
same,dopaminergic neuron differentiation score,ReNCell VM [2]; library: Tocriscreen,inactive: 0
NCC[C@H](O)C(=O)N[C@@H]1C[C@H](N)[C@@H](O[C@H]2O[C@H](CN)[C@@H](O)[C@H](O)[C@H]2O)[C@H](O)[C@H]1O[C@H]1O[C@H](CO)[C@@H](O)[C@H](N)[C@H]1O [Amikacin hydrate],neuronal differentiation score,ReNCell VM [1]; library: Prestwick,inactive: 0
same,dopaminergic neuron differentiation score,ReNCell VM [2]; library: Prestwick,inactive: 0
COC[C@@H]1Cc2cc(OC)c3c(c2[C@H](c2ccc(OC)c(OC)c2)[C@H]1COC)OCO3 [hypophyllanthin],neuronal differentiation score,ReNCell VM [1]; library: Natural,inactive: 0
same,dopaminergic neuron differentiation score,ReNCell VM [2]; library: Natural,inactive: 0
CC(=O)Nc1ccc(OC(C)=O)cc1,neuronal differentiation score,ReNCell VM [1]; library: Spectrum,inactive: 0
same,dopaminergic neuron differentiation score,ReNCell VM [2]; library: Spectrum,inactive: 0
CC(C)(C)NC[C@H](O)COc1nsnc1N1CCOCC1 [S(-)-Timolol maleate],neuronal differentiation score,ReNCell VM [1]; library: LOPAC,inactive: 0
same,dopaminergic neuron differentiation score,ReNCell VM [2]; library: LOPAC,inactive: 0
CC(=O)[C@@]1(O)CC[C@H]2[C@@H]3C[C@H](C)C4=CC(=O)C=C[C@]4(C)[C@@]3(F)[C@@H](O)C[C@@]21C [Fluorometholone],neuronal differentiation score,ReNCell VM [1]; library: Prestwick,inactive: 0
same,dopaminergic neuron differentiation score,ReNCell VM [2]; library: Prestwick,inactive: 0
S=C(S)OC1CC2CC1C1CCCC21 [D-609 potassium],neuronal differentiation score,ReNCell VM [1]; library: LOPAC,inactive: 0
same,dopaminergic neuron differentiation score,ReNCell VM [2]; library: LOPAC,inactive: 0
OC(Cn1cncn1)(Cn1cncn1)c1ccc(F)cc1F,neuronal differentiation score,ReNCell VM [1]; library: Spectrum,inactive: 0
same,dopaminergic neuron differentiation score,ReNCell VM [2]; library: Spectrum,inactive: 0
COC(=O)[C@@H]1OC(=O)C2OC23[C@@]1(C)CCC1[C@@]2(C)CCC(=O)C(C)(C)C2C[C@@H](OC(C)=O)[C@]13C (some centres undefined),neuronal differentiation score,ReNCell VM [1]; library: Spectrum,inactive: 0
same,dopaminergic neuron differentiation score,ReNCell VM [2]; library: Spectrum,inactive: 0
FC(F)(F)c1cccc(-c2noc(-c3cc(-c4ccccc4)c(C(F)(F)F)s3)n2)c1,neuronal differentiation score,ReNCell VM [1]; library: Tocriscreen,inactive: 0
same,dopaminergic neuron differentiation score,ReNCell VM [2]; library: Tocriscreen,inactive: 0
O=C1CN2Cc3c(ccc(Cl)c3Cl)N=C2N1,neuronal differentiation score,ReNCell VM [1]; library: Spectrum,inactive: 0
same,dopaminergic neuron differentiation score,ReNCell VM [2]; library: Spectrum,inactive: 0
CCC(=O)O[C@]1(C(=O)CCl)[C@@H](C)C[C@H]2[C@@H]3CCC4=CC(=O)C=C[C@]4(C)[C@@]3(F)[C@@H](O)C[C@@]21C [Clobetasol propionate],neuronal differentiation score,ReNCell VM [1]; library: Prestwick,inactive: 0
same,dopaminergic neuron differentiation score,ReNCell VM [2]; library: Prestwick,inactive: 0
COc1ccc2c(=O)c(CC(=O)O)coc2c1,neuronal differentiation score,ReNCell VM [1]; library: Spectrum,inactive: 0
same,dopaminergic neuron differentiation score,ReNCell VM [2]; library: Spectrum,inactive: 1
CC1=C(C(=O)O)N2C(=O)[C@@H](NC(=O)[C@H](N)c3ccc(O)cc3)[C@H]2SC1,neuronal differentiation score,ReNCell VM [1]; library: Spectrum,inactive: 1
same,dopaminergic neuron differentiation score,ReNCell VM [2]; library: Spectrum,inactive: 0
N[C@@H](Cc1c[nH]c2ccccc12)C(=O)O [L-tryptophane],neuronal differentiation score,ReNCell VM [1]; library: Phytochemical,inactive: 0
same,dopaminergic neuron differentiation score,ReNCell VM [2]; library: Phytochemical,inactive: 0
NC(N)=NC(N)=Nc1ccccc1 [1-Phenylbiguanide],neuronal differentiation score,ReNCell VM [1]; library: LOPAC,inactive: 0
same,dopaminergic neuron differentiation score,ReNCell VM [2]; library: LOPAC,inactive: 0

# Some of the entries above, reformatted.
structure (smiles)	measurement	setting	value
C[N+]1(C)C[C@H](O)C[C@H]1C(=O)[O-] [Betonicine]	neuronal differentiation score	ReNCell VM [1]; library: Phytochemical	inactive: 0
same	dopaminergic neuron differentiation score	ReNCell VM [2]; library: Phytochemical	inactive: 0
Cc1cc2c(cc1S(N)(=O)=O)S(=O)(=O)CCC2	neuronal differentiation score	ReNCell VM [1]; library: Spectrum	inactive: 0

# A run of entries from the list above, as a working copy:
structure (smiles),measurement,setting,value
O=C1OC(=O)[C@H]2[C@@H]1[C@@H]1CC[C@H]2O1 [Norcantharidin],neuronal differentiation score,ReNCell VM [1]; library: LOPAC,inactive: -2
same,dopaminergic neuron differentiation score,ReNCell VM [2]; library: LOPAC,inactive: 0
